Experimental findings from US10189862B2, “Phenothiazine-pyridine compounds and uses thereof” (The Chinese University of Hong Kong, priority 2016, dated 2019) are described below.

In one data set the test system is A549 cell line. Description: Photocytotoxicity (PDT), MTT assay. Type of data set: cell-based. How it is done:
(§1) Cell lines and culture conditions: A549, HT29, MCF-7, MDA-MB-231 cell lines were maintained in RPMI1640 supplemented with fetal bovine serum (10%) and penicillin-streptomycin solution (1%), and WI38 cells were maintained in DMEM supplemented with fetal bovine serum (10%) and penicillin-streptomycin solution (1%). Approximately 1×10^4 (for A549, HT29, MCF-7, MDA-MB-231) or 1.5×10^4 (for WI38) cells per well were seeded in 96-well plate and incubated overnight light at 37° C. in a humidified atmosphere with 5% CO2.
(§2) Photocytotoxicity: Cells were incubated with different concentrations of photosensitive drug for 1 h in the dark, then the medium in the well was sucked by a syringe, and washed by PBS. Then a solution of new medium was added, and illuminated by light. After irradiation, the cells were incubated under dark at 37° C. for another 24 h, and the cell viabilities were determined by MTT assay.
For orientation: Formazan colour is commonly taken as a measure of viable cells.

The subject of another data set is HT29 cell line. As to the kind of experiment: Photocytotoxicity (PDT), MTT assay. The data set is classed as cell-based. How it is done:
as §1, §2

Take `CCN(CC)c1ccc2nc3c(cc(N)c4nc(C)ccc43)[s+]c2c1` [Compound 8, 5-amino-9-(diethylamino)-3-methylpyrido[3,2-a]phenothiazin-7-ium chloride]: the entries for the “Ratio of DK/PDT” value with A549 cell line and with HT29 cell line were 3.6 and 21.9, respectively.

On to `CCN(CC)c1ccc2nc3c(cc(NCCCNC)c4nc(C)ccc43)[s+]c2c1` [Compound 22, 9-(diethylamino)-3-methyl-5-(3-(methylamino)propylamino) pyrido[3,2-a]phenothiazin-7-ium chloride], for which the results for the “Ratio of DK/PDT” value in the data set on A549 cell line and in the data set with HT29 cell line were 1.7 and 18.6, respectively.

For `CCCNc1c(I)c2[s+]c3cc(N(CC)CC)ccc3nc2c2ccc(C)nc12` [Compound 23, 9-(diethylamino)-6-iodo-3-methyl-5-(propylamino)pyrido[3,2-a]phenothiazin-7-ium chloride], the entries for the “Ratio of DK/PDT” value in the data set on A549 cell line and in the data set with HT29 cell line were 4.9 and 28.2, respectively.

On to `CCCCN(CCCC)c1ccc2nc3c(cc(NCCC)c4nc(C)ccc43)[s+]c2c1` [Compound 24, 9-(dibutylamino)-3-methyl-5-(propylamino)pyrido[3,2-a]phenothiazin-7-ium chloride], for which the figures for the “Ratio of DK/PDT” value in the data set with A549 cell line and with HT29 cell line were 8.5 and 11.4, respectively.
